# The whole screen tested about 350,000 compounds, of which about 1,200 (0.34%) were called active. The shares of active, inactive and inconclusive entries below differ from those in the screen. The call rests on the fitted dose curve; in most records, active means well fitted inhibition curve with a large enough effect; inconclusive means small, poorly fitted or top-dose-only effect; inactive means no such curve, though single readings can be large or run the other way. Where the call is inconclusive, the potency comes from a doubtful curve fit.
# The chains behind the UniProt entries cited, without tags or fusion partners.
# UniProt P27695, whole entry, looked up: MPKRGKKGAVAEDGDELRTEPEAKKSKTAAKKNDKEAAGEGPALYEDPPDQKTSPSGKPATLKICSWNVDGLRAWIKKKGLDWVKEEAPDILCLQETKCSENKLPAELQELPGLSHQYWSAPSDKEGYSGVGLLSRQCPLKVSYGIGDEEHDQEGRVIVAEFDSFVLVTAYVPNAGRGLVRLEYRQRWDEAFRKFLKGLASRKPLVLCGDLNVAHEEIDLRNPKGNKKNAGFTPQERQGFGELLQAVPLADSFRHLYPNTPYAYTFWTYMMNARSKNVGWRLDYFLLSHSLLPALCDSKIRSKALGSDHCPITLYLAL
# Biological target: DNA repair nuclease/redox regulator APEX1 (Homo sapiens) (UniProt P27695)
# Test: qHTS Assay for Inhibitors of the Human Apurinic/apyrimidinic Endonuclease 1 (APE1); further: nearly all actives have a fitted effect of over 55% in size;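 on activity change, negative = inhibition: plate controls were vehicle for no effect and reference inhibitor for full effect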
# Details: recombinant APE1, TAMRA/BHQ-2 abasic DNA cleavage fluorescence; activity change, negative = inhibition: at 65.8 µM (top of the series)
# From the text: The apurinic/apyrimidinic endonuclease APE1 is the primary mammalian enzyme responsible for the removal of abasic (or AP) sites in DNA and functions centrally in the base excision DNA repair (BER) pathway. […] Thus, targeting APE1 could improve the efficacy of current treatment paradigms by promoting selective sensitization or protection of diseased and normal cells, respectively.
# Inhibition of APE1 activity was screened by utilizing double-stranded short substrate containing tetrahydrofuran (THF) abasic site labeled with rhodamine-type fluorophore (TAMRA) at the 5'-end and with non-fluorescent Black Hole Quencher-2 (BHQ-2) at the opposing 3'-end. An increase in the fluorescence intensity due to incision of the abasic site by APE1 was used to measure the enzyme activity.
# NIH Chemical Genomics Center [NCGC]
# NIH Molecular Libraries Probe Centers Network [MLPCN]
# Assay Provider: David M. Wilson, III, National Institute on Aging, NIH
# Three uL of enzyme solution (0.75 nM APE1 final concentration) was dispensed to 1536-well Greiner black solid bottom plates. […] The plates were incubated for 15 min at room temperature, and then 1 uL of substrate solution (50 nM final concentration of TAMRA/BHQ-2) was added to start the reaction. The plates were immediately transferred into ViewLux High-throughput CCD imager (Perkin-Elmer) in order to measure the reaction progress in kinetic mode (three reads every 60 seconds) using 525 nm excitation and 598 nm emission fluorescence protocol. The fluorescence intensity difference between the third and the first time points was used to compute reaction progress. Results were normalized to buffer only columns and NSC13755 positive controls and negative control DMSO treated wells.
# Potency means the concentration at half of the fitted maximal effect.
Structure (SMILES),Potency,"activity change, negative = inhibition"
O=C(O)/C=C/c1cn(-c2ccccc2)nc1-c1cc2ccccc2oc1=O,"inconclusive: 39.8 µM [inhibitor, single point]",
CC(=O)Nc1ccc(S(=O)(=O)NCCC(=O)OCC(=O)N2CCN(C(=O)c3ccco3)CC2)cc1,"inconclusive: 16.8 µM [inhibitor, partial curve]",
Cc1ccc(CC(=O)CCc2ccccc2)cc1,,inactive: 28.4%
CCOC(=O)C1CCN(S(=O)(=O)c2nc3nc(C)cc(C)n3n2)CC1,"inconclusive: 11.2 µM [inhibitor, partial curve, poor fit]",
Cc1cc(/C=C\c2nc(O)c([N+](=O)[O-])c(=O)[nH]2)c(C)n1-c1ccccc1,"inconclusive: 28.2 µM [inhibitor, single point]",
CC(=O)/C(N=Nc1ccc2c(c1)OCCO2)=C(\C)O,"inconclusive: 25.1 µM [inhibitor, single point]",
COc1cccc(OCCCCCCN2CCOCC2)c1,"inconclusive: 2.51 µM [inhibitor, single point]",
COc1c(O)c(O)cc2c1oc1c3cc(C)ccc3oc(=O)c21,"inconclusive: 28.2 µM [inhibitor, partial curve]",
COc1ccc(-n2cnc3scc(-c4ccccc4)c3c2=O)cc1,"inconclusive: 4.47 µM [inhibitor, single point]",
Cc1sc2ncn(CC(=O)NCC(=O)N(C)C3CCCCC3)c(=O)c2c1C,"inconclusive: 0.0447 µM [inhibitor, full curve, poor fit]",
Cc1ccc(N2CCN(S(=O)(=O)N3CCCCC3)CC2)cc1Cl,"inconclusive: 28.2 µM [inhibitor, single point]",
Cn1c(=O)c([N+](=O)[O-])c(N2CCSCC2)c2ccccc21,"inconclusive: 0.1 µM [inhibitor, full curve, poor fit]",
COc1ccc(/C=N\NC(=O)c2cc3c(ccc4ccccc43)o2)cc1O,"inconclusive: 33.6 µM [inhibitor, single point]",
O=C(Nc1ccc([N+](=O)[O-])cc1)Nc1ccc2[nH]c(=O)[nH]c2c1,"inconclusive: 22.4 µM [inhibitor, partial curve]",
COc1ccc(S(=O)(=O)Nc2cc(Sc3ncn[nH]3)c(O)c3ccccc23)cc1,"inconclusive: 31.6 µM [inhibitor, single point]",
CC(=O)OC[C@@H]1O[C@@H](O/N=C2/C[C@@H](O)[C@@H](O)[C@@H]3[C@@H]4C(=O)N(c5cccc(Oc6ccccc6)c5)C(=O)[C@H]4CC[C@@H]23)[C@H](OC(C)=O)[C@H](OC(C)=O)[C@@H]1OC(C)=O,"inconclusive: 3.16 µM [inhibitor, single point]",
CCOC(=O)c1c(C)[nH]c(C)c1C(=O)COC(=O)/C=C/c1ccc(Cl)cc1,"inconclusive: 50.1 µM [inhibitor, partial curve]",
Cn1c(=O)cc(SCC(=O)NCCC2=CCCCC2)c2cc(Cl)ccc21,"inconclusive: 5.62 µM [inhibitor, full curve]",
CCCSc1nc2cc(C)c(C)cc2n1CC(C)O (stereo not given),,inactive: 9.05%
Cc1ccc(NC(=O)c2cc(N3C(=O)C=CC3=O)ccc2N2CCOCC2)cc1,,inactive: 0.887%
CC(=O)OCCCNc1cc(SCc2ccco2)c2nonc2c1[N+](=O)[O-],"inconclusive: 28.2 µM [inhibitor, single point]",
CCCCn1c(SCC(=O)N2CCCC2)nc2cc(S(N)(=O)=O)ccc21,"inconclusive: 2.24 µM [inhibitor, partial curve]",

Structure (SMILES),Potency,"activity change, negative = inhibition"
COc1ccc(C#CC2C=CC(Oc3cc(C)cc(C)c3)C(CO)O2)cc1 (stereo not given),"inconclusive: 7.94 µM [inhibitor, single point]",
O=C(O)c1cccc(S(=O)(=O)Nc2ccc3[nH]c(=O)[nH]c3c2)c1,"inconclusive: 31.6 µM [inhibitor, single point]",
CNC(=S)N/N=C/c1c(C)nn(-c2cccc(Cl)c2)c1Cl,"inconclusive: 6.31 µM [inhibitor, single point]",
CCOc1ccc(N2C(=O)CC(N(Cc3ccco3)C(=O)CCC(=O)O)C2=O)cc1 (stereo not given),,inactive: 3.7%
O=C1CCCC(O)=C1N=Nc1ccc(C(=O)O)cc1,active: 8.91 µM,
O=C(COC(=O)Cc1cccc(C(F)(F)F)c1)NC(=O)NC1CCCC1,,inactive: -9.64%
Oc1cccc(O)c1O,active: 1.26 µM,
COC(=O)c1ccc(Cn2cnc3c(cnn3-c3ccc(C)c(C)c3)c2=O)o1,"inconclusive: 44.7 µM [inhibitor, single point]",
N#Cc1ccccc1OCCOCCNC1CCCC1,"inconclusive: 8.91 µM [inhibitor, single point]",
O=C(Nc1ccc(NC(=O)c2cccs2)cc1)c1ccc(Br)o1,"inconclusive: 31.6 µM [inhibitor, single point]",
COc1ccc(/C=C/c2cc(OC)c(OC)cc2CC[N+](C)(C)C)cc1,,inactive: 19%
O=C(OCC(F)(F)F)[C@H](O)[C@@H](O)C(=O)OCC(F)(F)F,,inactive: 21.4%
O=c1[nH][nH]c2c(N=Cc3ccccc3O)ccc(F)c12,active: 8.91 µM,
COc1oc(-c2ccccc2)nc1C(F)(F)F,,inactive: 5.68%
N#Cc1ccccc1OC[C@H](O)CNCCNC(=O)Nc1ccccc1,"inconclusive: 44.7 µM [inhibitor, single point]",
CC(C)(C)c1cc(/C=C(\C#N)C(N)=S)cc(C(C)(C)C)c1O,"inconclusive: 7.08 µM [inhibitor, full curve]",
CCCCSc1nc2c(cc1C#N)CCC2,,inactive: -1%
COc1ccc(CNS(=O)(=O)c2cc3c(cc2Cl)NC(=O)CO3)cc1,,inactive: -7.21%
COc1ccc(/C=N/NC(=O)c2nn(-c3ccc(Cl)cc3)c(=O)c3c(N)scc23)cc1,"inconclusive: 25.1 µM [inhibitor, single point]",
CCC1(CC)C(=O)C2=C3C1[C@H](C(=O)OC)C=C(C(=O)OC)C[C@H]3[C@H]1C(=O)NC(=O)[C@H]1[C@H]2C (stereo not given in full),"inconclusive: 44.7 µM [inhibitor, single point]",
Cc1nn2c(NC(C)C)c3c(nc2c1-c1ccccc1)CCC3,"inconclusive: 8.91 µM [inhibitor, single point]",
CC(C)(C)C(=O)COC(=O)c1ccccc1O,"inconclusive: 2.82 µM [inhibitor, partial curve, poor fit]",

Structure (SMILES),Potency,"activity change, negative = inhibition"
CCc1nnc(NC(=O)C2(C)COC(c3ccccc3)OC2)s1 (stereo not given),,inactive: 15.7%
COc1ccc(-c2coc3cc(O)cc(O)c3c2=O)cc1,"inconclusive: 39.8 µM [inhibitor, single point]",
Cc1ccc2nc(-c3ccc4c(c3)OCCO4)cn2c1,"inconclusive: 8.91 µM [inhibitor, single point]",
O=C(COc1ccccc1-c1ccccc1)NN=C1CCCC1,"inconclusive: 17.8 µM [inhibitor, single point]",
COc1cc(OC)c2ccc(=O)oc2c1C(CC(=O)N1CCCC(C)C1)c1ccc2c(c1)OCO2 (stereo not given),"inconclusive: 39.8 µM [inhibitor, single point]",
Nc1ccc2nc(-c3ccc(N)c(Cl)c3)[nH]c2c1,"inconclusive: 39.8 µM [inhibitor, single point]",
CCOc1ccc2nc(NC3=NC(c4ccc(OC)cc4)CC(=O)N3)nc(C)c2c1 (stereo not given),"inconclusive: 39.8 µM [inhibitor, single point]",
C#CCOCCOCCOCCNc1nc(N2CCOCC2)nc(N2CCN(C(=O)[C@H]([C@@H](C)O)n3cc(CCCCN)nn3)CC2)n1,"inconclusive: 3.16 µM [inhibitor, single point]",
C[C@H](NC(=O)/C(C#N)=C/c1ccc(O)c(O)c1)c1ccccc1,"inconclusive: 20 µM [inhibitor, full curve, poor fit]",
CCN(CC)CCC(=O)Nc1cccc2c1C(=O)c1ccccc1C2=O,"inconclusive: 12.6 µM [inhibitor, partial curve]",
CCCCCCCC[n+]1cccc(C(=O)N(CC)CC)c1,"inconclusive: 10 µM [inhibitor, partial curve, poor fit]",
COc1ccc(CNc2nc(NCc3ccc(OC)c(OC)c3)n(C(=O)c3cccs3)n2)cc1OC,"inconclusive: 44.7 µM [inhibitor, partial curve, poor fit]",
O=C(CSc1nc2ccsc2c(=O)n1Cc1ccc(C(=O)O)cc1)NCc1ccco1,"inconclusive: 0.891 µM [inhibitor, full curve, poor fit]",
CCOc1ccc(S(=O)(=O)N2CCN(C(=O)c3ccncc3)CC2)cc1,"inconclusive: 0.67 µM [inhibitor, single point]",
COc1ccc(/C=N/NC(=O)c2ccc(=O)[nH]n2)cc1OC,,inactive: 4.85%
C=CCSc1nnc(NC(=O)CSc2nc(CCC)cc(=O)[nH]2)s1,,inactive: 5.46%
C=CCn1c(-c2ccccc2)nc2nc3ccccc3nc21,"inconclusive: 10 µM [inhibitor, single point]",
Cc1cc(C2C(C#N)=C(N)SC(N)=C2C#N)c(C)s1,"inconclusive: 3.55 µM [inhibitor, partial curve, poor fit]",
CN(C)/C=C/C(=O)/C=C/c1cn(-c2ncc(C(F)(F)F)cc2Cl)c2ccccc12,"inconclusive: 15.8 µM [inhibitor, partial curve, poor fit]",
CN(C)c1ccc(/C=C2\N=C(c3ccc(Cl)c([N+](=O)[O-])c3)NC2=O)cc1,"inconclusive: 7.94 µM [inhibitor, single point]",
CCOC(=O)c1sc2ncn(/N=C/c3cccnc3)c(=O)c2c1C,"inconclusive: 7.08 µM [inhibitor, single point]",

# Random excerpt: three compounds from above, in no set order.
Structure (SMILES),Potency,"activity change, negative = inhibition"
CCOc1ccc2nc(NC3=NC(c4ccc(OC)cc4)CC(=O)N3)nc(C)c2c1 (stereo not given),"inconclusive: 39.8 µM [inhibitor, single point]",
COc1ccc(-c2coc3cc(O)cc(O)c3c2=O)cc1,"inconclusive: 39.8 µM [inhibitor, single point]",
CN(C)/C=C/C(=O)/C=C/c1cn(-c2ncc(C(F)(F)F)cc2Cl)c2ccccc12,"inconclusive: 15.8 µM [inhibitor, partial curve, poor fit]",

# — PubChem BioAssay AID2517 (National Center for Advancing Translational Sciences (NCATS), 2010)
